# Results taken from US20210268029A1, “METHODS FOR TREATING CANCER WITH MANUFACTURED T CELLS” (RAPA THERAPEUTICS, LLC, priority 2018, published 2021).
# At least one compound was matched to its structure with a doubt left.
# Tested on: human CD4^+ and CD8^+ T cells
# Experiment: Western blot of p62, phospho-RAPTOR and BIM after 16-hr pre-incubation (FIGS. 11-13)
# Assay type: cell-based
# Conditions: 1:3 beads, daclizumab, rapamycin 1 μM or temsirolimus 1.0 or 0.1
# Protocol: For FIGS. 11-13, human CD4^+ and CD8^+ T cells were cultured using a 16-hr pre-incubation interval prior to the addition of 3/28 beads at the reduced ratio of 1:3 beads-to-T cells. As indicated in FIGS. 11-13, the various T cell cultures received different methods of mTOR inhibition (rapamycin at 1.0 μM; temsirolimus at 1.0 or 0.1 different conditions of exogenous IL-2 addition, and different conditions relative to addition of the anti-IL-2 receptor monoclonal antibody, daclizumab. After the 16-hr pre-incubation interval, cells were harvested from the T cell cultures, protein was isolated, and p62 (FIG. 11), phospho-RAPTOR (FIG. 12), or BIM (FIG. 13) and the housekeeper gene β-actin were quantified by western blot.
compound,measurement,value
CO[C@H]1C[C@@H]2CC[C@@H](C)[C@@](O)(O2)C(=O)C(=O)N2CCCC[C@H]2C(=O)O[C@H]([C@H](C)C[C@@H]2CC[C@@H](O)[C@H](OC)C2)CC(=O)[C@H](C)/C=C(\C)[C@@H](O)[C@@H](OC)C(=O)[C@H](C)C[C@H](C)/C=C/C=C/C=C/1C [rapamycin],autophagy marker p62,autophagy could be realized
